In paper doi:10.64898/2025.12.19.695442, “TRIM37 recognizes a bipartite degron to ubiquitinate centrosome substrates” (bioRxiv, 2025):
Results are given in words; binding and its absence hold for the method and conditions named. A result given as binding can be weak or reduced; the word gives no strength.

Biological target: T1, TRIM37 (UniProt O94972 1-964)
T1 construct: TRIM37, E3 ubiquitin ligase; 459-964; The co-immunoprecipitation methods say only 'TRIM37 (1 ug)', the same amount as the Abcam protein of the ubiquitination assay; also called purified TRIM37; source: bought: Abcam ab269066
T1 sequence (looked up): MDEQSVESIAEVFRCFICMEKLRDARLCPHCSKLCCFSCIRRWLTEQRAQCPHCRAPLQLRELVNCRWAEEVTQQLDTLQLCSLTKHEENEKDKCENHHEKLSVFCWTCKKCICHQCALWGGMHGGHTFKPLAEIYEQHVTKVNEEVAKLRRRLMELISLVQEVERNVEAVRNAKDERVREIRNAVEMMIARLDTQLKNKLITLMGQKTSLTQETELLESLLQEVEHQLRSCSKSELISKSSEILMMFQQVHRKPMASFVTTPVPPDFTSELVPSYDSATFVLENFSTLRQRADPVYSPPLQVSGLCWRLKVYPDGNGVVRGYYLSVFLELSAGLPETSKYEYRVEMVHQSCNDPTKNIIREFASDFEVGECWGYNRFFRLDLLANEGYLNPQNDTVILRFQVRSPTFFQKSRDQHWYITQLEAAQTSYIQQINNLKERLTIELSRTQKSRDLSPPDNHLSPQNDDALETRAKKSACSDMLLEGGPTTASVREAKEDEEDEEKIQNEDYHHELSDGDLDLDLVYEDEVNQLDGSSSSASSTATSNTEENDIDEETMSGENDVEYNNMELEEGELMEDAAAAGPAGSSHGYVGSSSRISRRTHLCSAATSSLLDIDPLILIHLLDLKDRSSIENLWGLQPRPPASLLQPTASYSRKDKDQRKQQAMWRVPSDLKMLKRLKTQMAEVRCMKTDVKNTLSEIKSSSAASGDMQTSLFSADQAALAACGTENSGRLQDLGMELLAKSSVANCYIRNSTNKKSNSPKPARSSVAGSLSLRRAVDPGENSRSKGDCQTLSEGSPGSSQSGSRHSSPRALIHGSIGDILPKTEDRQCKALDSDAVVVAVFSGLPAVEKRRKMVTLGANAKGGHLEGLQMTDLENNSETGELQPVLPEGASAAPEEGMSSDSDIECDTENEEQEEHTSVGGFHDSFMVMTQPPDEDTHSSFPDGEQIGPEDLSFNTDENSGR
Test: pull-down; TRIM37 (1 ug) held on Protein A Dynabeads conjugated with TRIM37 antibody; purified GFP-tagged Cep192 fragments (1 uM), 1 hr at 37°C; washes 150 mM KCl, last wash 500 mM KCl; Western blot against GFP; both purified

Row | Substance | binding
1 | GFP-tagged Cep192 C-terminal truncation lacking ASH6 (from UniProt Q8TEP8-3) (domain or fragment) | binds
2 | GFP-tagged Cep192 C-terminal truncation lacking ASH7 (from UniProt Q8TEP8-3) (domain or fragment) | binds
